Reference: PMC12772958
Results are given in words; binding and its absence hold for the method and conditions named. In cells and extracts the contact can be indirect. Some binding calls cover weakened binding; strength is not graded here. Sequences can lack the tags named with a protein.

Amino acid sequences for entries named in this document (tags omitted). Residues count along the entry.
UniProt Q9ULH1, residues 589-1129: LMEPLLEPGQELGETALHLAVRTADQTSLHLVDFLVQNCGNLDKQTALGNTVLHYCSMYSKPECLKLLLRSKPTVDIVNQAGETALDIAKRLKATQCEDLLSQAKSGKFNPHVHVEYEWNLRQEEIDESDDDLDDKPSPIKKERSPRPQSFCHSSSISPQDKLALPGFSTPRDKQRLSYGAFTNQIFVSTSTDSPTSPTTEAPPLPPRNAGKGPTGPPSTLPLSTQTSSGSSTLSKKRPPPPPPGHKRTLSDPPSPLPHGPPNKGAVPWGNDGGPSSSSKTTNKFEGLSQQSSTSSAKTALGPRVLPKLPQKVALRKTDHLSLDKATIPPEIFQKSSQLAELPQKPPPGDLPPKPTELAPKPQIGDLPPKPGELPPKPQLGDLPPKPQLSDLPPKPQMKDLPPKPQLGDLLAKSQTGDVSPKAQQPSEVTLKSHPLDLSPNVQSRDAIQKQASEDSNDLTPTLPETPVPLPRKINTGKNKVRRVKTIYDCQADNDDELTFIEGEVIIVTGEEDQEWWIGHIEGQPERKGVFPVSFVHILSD
UniProt Q96B97: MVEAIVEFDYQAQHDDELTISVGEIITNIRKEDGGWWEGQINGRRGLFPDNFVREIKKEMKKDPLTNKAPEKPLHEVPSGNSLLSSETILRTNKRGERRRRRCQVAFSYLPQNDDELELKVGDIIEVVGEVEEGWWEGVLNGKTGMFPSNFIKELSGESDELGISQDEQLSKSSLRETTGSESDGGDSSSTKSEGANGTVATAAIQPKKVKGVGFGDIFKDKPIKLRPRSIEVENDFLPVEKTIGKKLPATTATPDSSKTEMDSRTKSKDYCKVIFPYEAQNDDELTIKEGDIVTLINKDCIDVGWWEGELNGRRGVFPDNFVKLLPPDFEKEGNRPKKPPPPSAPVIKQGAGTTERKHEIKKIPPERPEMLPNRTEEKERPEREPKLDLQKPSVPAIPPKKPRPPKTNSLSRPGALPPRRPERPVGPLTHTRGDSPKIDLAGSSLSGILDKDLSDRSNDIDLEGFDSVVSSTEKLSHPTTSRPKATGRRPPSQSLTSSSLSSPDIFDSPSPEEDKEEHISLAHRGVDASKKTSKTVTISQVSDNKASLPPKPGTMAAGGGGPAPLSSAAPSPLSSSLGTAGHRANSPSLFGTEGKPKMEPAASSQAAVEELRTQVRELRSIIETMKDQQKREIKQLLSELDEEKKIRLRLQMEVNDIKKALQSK

T1: GFP–MYO1F (human) (UniProt O00160)
T1 sequence: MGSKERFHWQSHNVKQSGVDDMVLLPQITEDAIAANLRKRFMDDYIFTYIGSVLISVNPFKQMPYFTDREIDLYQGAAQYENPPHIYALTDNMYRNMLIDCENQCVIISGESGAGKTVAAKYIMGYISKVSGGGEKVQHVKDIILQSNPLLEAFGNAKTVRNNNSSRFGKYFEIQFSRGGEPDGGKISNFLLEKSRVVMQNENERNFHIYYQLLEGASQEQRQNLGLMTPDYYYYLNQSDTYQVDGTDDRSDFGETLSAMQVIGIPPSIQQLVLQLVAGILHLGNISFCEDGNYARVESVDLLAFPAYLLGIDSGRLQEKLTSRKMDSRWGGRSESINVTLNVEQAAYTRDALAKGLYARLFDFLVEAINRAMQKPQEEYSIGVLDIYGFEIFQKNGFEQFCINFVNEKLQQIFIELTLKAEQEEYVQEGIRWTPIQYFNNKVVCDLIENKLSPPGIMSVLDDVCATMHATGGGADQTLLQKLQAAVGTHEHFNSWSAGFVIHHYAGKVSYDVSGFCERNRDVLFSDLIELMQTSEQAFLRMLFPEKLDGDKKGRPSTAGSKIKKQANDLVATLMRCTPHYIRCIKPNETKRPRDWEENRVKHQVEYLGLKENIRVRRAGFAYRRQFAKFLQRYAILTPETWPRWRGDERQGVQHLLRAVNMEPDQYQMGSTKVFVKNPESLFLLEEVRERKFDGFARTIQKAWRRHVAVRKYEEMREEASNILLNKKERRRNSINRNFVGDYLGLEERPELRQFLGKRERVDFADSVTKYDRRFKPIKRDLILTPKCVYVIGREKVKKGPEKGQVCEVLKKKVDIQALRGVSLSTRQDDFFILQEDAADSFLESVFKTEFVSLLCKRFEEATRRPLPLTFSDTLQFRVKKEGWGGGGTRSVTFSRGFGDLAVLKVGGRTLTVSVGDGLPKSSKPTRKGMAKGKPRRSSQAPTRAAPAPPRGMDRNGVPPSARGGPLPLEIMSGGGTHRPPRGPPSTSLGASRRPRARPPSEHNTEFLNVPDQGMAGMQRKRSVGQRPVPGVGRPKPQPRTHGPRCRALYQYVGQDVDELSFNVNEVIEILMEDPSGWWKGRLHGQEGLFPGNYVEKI

T2: GFP–MYO1F tail (human) (UniProt O00160)
T2 sequence: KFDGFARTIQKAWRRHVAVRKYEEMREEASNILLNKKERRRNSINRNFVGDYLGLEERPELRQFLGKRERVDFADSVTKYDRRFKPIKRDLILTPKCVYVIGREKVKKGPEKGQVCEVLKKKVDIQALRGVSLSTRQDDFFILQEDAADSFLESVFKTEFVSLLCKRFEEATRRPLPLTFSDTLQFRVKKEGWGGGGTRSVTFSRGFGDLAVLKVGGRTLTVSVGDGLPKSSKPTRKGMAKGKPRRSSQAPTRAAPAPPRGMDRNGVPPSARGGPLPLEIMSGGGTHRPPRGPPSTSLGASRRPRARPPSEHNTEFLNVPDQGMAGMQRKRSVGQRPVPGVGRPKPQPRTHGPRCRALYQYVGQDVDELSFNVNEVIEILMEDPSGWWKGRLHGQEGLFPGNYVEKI


Tests used:
[1] = target: T1, GFP–MYO1F (human); experiment: co-IP; anti-GFP antibodies and protein A Sepharose from RPE cells stably expressing GFP–MYO1F or GFP–MYO1FΔSH3 and transiently transfected with Myc-tagged partners; blot with anti-Myc; lysis in 50 mM Tris-HCl pH 7.4, 100 mM NaCl, 1% NP-40, 5 mM MgCl2, 5 mM ATP; also after siRNA knockdown of SH3KBP1 or ASAP1
[2] = target: T1, GFP–MYO1F (human); experiment: co-IP; GFP-specific nanobodies from RPE cells stably expressing GFP–MYO1F and transiently expressing Myc-tagged SH3BP2 or ASAP1 constructs; blot with anti-Myc and anti-GFP
[3] = target: T2, GFP–MYO1F tail (human); experiment: co-IP; anti-GFP antibodies from RPE cells transiently expressing GFP–MYO1F tail or its C-terminal deletions; blot with antibodies to endogenous ASAP1 or SH3KBP1
[4] = target: T1, GFP–MYO1F (human); experiment: co-IP; GFP-specific nanobodies from RPE cells stably expressing GFP–MYO1F and transiently expressing Myc-tagged SH3BP2 or ASAP1 constructs; blot with anti-Myc and anti-GFP; remark: listed apart in the source

Row | Molecule | binding [1] | binding [4] | also measured
1 | Myc–ASAP1-3′ (amino acids 589–1129) (from UniProt Q9ULH1 589-1129) (domain or fragment) | binds | – | binding [2]: binds
2 | Myc–SH3KBP1 (from UniProt Q96B97 1-665) | binds | – | –
3 | endogenous SH3KBP1 (from UniProt Q96B97 1-665) | – | – | binding [3]: binds
4 | Myc–SH3BP2 (protein, UniProt P78314 1-561) MAAEEMHWPVPMKAIGAQNLLTMPGGVAKAGYLHKKGGTQLQLLKWPLRFVIIHKRCVYYFKSSTSASPQGAFSLSGYNRVMRAAEETTSNNVFPFKIIHISKKHRTWFFSASSEEERKSWMALLRREIGHFHEKKDLPLDTSDSSSDTDSFYGAVERPVDISLSPYPTDNEDYEHDDEDDSYLEPDSPEPGRLEDALMHPPAYPPPPVPTPRKPAFSDMPRAHSFTSKGPGPLLPPPPPKHGLPDVGLAAEDSKRDPLCPRRAEPCPRVPATPRRMSDPPLSTMPTAPGLRKPPCFRESASPSPEPWTPGHGACSTSSAAIMATATSRNCDKLKSFHLSPRGPPTSEPPPVPANKPKFLKIAEEDPPREAAMPGLFVPPVAPRPPALKLPVPEAMARPAVLPRPEKPQLPHLQRSPPDGQSFRSFSFEKPRQPSQADTGGDDSDEDYEKVPLPNSVFVNTTESCEVERLFKATSPRGEPQDGLYCIRNSSTKSGKVLVVWDETSNKVRNYRIFEKDSKFYLEGEVLFVSVGSMVEHYHTHVLPSHQSLLLRHPYGYTGPR | binds | binds | –

Second part, led by results:

Row | binding [1] | binding [4] | Molecule | also measured
5 | – | binds | Myc-tagged SH3BP2 K356A (protein, UniProt P78314 1-561) MAAEEMHWPVPMKAIGAQNLLTMPGGVAKAGYLHKKGGTQLQLLKWPLRFVIIHKRCVYYFKSSTSASPQGAFSLSGYNRVMRAAEETTSNNVFPFKIIHISKKHRTWFFSASSEEERKSWMALLRREIGHFHEKKDLPLDTSDSSSDTDSFYGAVERPVDISLSPYPTDNEDYEHDDEDDSYLEPDSPEPGRLEDALMHPPAYPPPPVPTPRKPAFSDMPRAHSFTSKGPGPLLPPPPPKHGLPDVGLAAEDSKRDPLCPRRAEPCPRVPATPRRMSDPPLSTMPTAPGLRKPPCFRESASPSPEPWTPGHGACSTSSAAIMATATSRNCDKLKSFHLSPRGPPTSEPPPVPANAPKFLKIAEEDPPREAAMPGLFVPPVAPRPPALKLPVPEAMARPAVLPRPEKPQLPHLQRSPPDGQSFRSFSFEKPRQPSQADTGGDDSDEDYEKVPLPNSVFVNTTESCEVERLFKATSPRGEPQDGLYCIRNSSTKSGKVLVVWDETSNKVRNYRIFEKDSKFYLEGEVLFVSVGSMVEHYHTHVLPSHQSLLLRHPYGYTGPR | –
6 | – | binds | Myc-tagged SH3BP2 ΔPPVPANK (protein, UniProt P78314) MAAEEMHWPVPMKAIGAQNLLTMPGGVAKAGYLHKKGGTQLQLLKWPLRFVIIHKRCVYYFKSSTSASPQGAFSLSGYNRVMRAAEETTSNNVFPFKIIHISKKHRTWFFSASSEEERKSWMALLRREIGHFHEKKDLPLDTSDSSSDTDSFYGAVERPVDISLSPYPTDNEDYEHDDEDDSYLEPDSPEPGRLEDALMHPPAYPPPPVPTPRKPAFSDMPRAHSFTSKGPGPLLPPPPPKHGLPDVGLAAEDSKRDPLCPRRAEPCPRVPATPRRMSDPPLSTMPTAPGLRKPPCFRESASPSPEPWTPGHGACSTSSAAIMATATSRNCDKLKSFHLSPRGPPTSEPPKFLKIAEEDPPREAAMPGLFVPPVAPRPPALKLPVPEAMARPAVLPRPEKPQLPHLQRSPPDGQSFRSFSFEKPRQPSQADTGGDDSDEDYEKVPLPNSVFVNTTESCEVERLFKATSPRGEPQDGLYCIRNSSTKSGKVLVVWDETSNKVRNYRIFEKDSKFYLEGEVLFVSVGSMVEHYHTHVLPSHQSLLLRHPYGYTGPR | –
